According to the supplement of paper PMC10849652:
The list shows a part of the results.

By UniProt entry, the sequences of proteins in these tests, tags left out. Where a name states a change or a piece, a line headed by the entry shows the natural chain unless it says otherwise.
UniProt P78318: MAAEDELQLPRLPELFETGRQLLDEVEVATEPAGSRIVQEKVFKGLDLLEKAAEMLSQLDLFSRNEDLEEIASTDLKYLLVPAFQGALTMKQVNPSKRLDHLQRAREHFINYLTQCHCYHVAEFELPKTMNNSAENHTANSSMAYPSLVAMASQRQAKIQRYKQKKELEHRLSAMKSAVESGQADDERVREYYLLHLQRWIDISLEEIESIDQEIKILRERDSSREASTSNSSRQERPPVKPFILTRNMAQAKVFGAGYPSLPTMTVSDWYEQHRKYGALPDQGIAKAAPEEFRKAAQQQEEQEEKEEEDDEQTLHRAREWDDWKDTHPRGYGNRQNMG
UniProt P53990, whole entry, looked up: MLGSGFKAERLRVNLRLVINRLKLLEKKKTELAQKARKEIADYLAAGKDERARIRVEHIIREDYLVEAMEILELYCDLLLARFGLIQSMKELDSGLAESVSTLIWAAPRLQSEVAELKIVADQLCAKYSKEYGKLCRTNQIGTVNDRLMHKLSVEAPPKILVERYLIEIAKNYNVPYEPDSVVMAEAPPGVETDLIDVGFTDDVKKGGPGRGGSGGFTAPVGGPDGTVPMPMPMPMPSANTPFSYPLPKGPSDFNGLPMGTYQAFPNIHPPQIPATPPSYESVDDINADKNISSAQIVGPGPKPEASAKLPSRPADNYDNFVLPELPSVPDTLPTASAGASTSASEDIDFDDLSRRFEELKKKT
UniProt P46940, whole entry, looked up: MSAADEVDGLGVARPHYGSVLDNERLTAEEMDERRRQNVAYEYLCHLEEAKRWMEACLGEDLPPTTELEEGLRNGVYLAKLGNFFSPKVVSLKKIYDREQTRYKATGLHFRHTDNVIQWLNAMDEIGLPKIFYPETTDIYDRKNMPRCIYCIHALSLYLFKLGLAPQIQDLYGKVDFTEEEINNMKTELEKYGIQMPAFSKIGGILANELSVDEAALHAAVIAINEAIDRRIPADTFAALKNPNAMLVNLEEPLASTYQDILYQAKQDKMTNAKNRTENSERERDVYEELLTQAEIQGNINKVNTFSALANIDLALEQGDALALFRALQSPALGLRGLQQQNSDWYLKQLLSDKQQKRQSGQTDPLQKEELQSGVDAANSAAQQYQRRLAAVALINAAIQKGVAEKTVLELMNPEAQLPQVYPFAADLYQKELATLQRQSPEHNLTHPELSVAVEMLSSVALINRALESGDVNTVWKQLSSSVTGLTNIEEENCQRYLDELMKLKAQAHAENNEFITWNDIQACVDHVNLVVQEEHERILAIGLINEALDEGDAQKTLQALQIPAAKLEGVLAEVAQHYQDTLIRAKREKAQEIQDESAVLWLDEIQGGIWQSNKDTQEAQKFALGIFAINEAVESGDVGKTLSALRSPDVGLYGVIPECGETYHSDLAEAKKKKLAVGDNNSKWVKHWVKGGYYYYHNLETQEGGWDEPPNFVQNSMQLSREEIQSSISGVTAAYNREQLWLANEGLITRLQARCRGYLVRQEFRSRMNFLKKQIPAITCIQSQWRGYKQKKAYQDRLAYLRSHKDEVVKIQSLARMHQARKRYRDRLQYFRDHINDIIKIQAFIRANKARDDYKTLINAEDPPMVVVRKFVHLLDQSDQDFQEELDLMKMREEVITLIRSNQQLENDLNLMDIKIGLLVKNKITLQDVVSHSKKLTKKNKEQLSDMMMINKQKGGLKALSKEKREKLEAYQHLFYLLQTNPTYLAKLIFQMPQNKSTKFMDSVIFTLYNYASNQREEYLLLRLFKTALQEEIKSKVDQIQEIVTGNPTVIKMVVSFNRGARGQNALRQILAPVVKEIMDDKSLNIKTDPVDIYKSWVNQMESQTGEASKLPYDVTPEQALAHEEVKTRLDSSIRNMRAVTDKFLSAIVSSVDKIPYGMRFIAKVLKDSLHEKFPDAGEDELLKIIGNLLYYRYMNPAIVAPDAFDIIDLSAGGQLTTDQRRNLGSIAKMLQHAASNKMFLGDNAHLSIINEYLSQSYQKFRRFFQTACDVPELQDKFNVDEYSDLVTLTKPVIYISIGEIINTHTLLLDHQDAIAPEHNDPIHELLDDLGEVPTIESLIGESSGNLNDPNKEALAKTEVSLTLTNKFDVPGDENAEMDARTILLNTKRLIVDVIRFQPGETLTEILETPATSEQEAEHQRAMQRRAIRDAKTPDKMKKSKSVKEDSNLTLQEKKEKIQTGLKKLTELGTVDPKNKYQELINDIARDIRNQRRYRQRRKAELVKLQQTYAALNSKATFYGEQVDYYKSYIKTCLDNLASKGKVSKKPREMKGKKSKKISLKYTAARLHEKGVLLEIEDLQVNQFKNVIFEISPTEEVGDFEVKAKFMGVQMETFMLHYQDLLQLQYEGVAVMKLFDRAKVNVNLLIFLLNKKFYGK
UniProt Q13572: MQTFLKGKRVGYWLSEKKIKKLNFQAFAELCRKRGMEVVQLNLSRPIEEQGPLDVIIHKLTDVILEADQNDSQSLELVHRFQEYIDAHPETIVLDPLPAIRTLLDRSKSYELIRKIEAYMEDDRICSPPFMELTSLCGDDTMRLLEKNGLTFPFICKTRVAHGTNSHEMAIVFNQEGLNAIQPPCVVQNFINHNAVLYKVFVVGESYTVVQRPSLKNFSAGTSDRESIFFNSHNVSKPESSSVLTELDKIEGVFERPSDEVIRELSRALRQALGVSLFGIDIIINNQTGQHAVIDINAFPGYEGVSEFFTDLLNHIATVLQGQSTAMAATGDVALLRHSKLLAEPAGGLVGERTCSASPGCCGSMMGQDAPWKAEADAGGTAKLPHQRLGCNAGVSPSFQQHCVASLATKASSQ
UniProt Q9H1K1: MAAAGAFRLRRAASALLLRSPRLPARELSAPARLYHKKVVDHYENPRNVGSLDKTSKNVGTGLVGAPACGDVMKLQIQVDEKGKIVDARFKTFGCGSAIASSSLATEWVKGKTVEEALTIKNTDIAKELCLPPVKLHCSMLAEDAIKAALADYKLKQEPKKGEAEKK
UniProt Q14116, whole entry, looked up: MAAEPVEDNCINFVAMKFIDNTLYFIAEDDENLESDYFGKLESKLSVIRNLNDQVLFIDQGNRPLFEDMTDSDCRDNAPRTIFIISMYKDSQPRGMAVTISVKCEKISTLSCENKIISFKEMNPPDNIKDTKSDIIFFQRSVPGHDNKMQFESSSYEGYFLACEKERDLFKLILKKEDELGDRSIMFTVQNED
UniProt P20839, whole entry, looked up: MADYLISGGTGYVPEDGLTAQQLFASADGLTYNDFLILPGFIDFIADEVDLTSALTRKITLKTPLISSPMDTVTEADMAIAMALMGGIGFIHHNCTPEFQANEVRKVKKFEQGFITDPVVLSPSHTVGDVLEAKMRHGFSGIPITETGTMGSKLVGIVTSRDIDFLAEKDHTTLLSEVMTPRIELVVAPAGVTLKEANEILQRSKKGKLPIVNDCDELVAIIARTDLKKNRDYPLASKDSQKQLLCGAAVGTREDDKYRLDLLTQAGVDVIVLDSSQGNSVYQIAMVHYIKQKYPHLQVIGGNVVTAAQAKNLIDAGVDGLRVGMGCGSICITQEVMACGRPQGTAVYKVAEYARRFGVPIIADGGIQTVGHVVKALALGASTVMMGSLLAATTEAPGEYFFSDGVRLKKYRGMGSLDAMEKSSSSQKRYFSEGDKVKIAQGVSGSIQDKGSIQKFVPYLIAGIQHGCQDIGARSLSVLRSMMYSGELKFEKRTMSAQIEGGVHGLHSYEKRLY
UniProt O00410: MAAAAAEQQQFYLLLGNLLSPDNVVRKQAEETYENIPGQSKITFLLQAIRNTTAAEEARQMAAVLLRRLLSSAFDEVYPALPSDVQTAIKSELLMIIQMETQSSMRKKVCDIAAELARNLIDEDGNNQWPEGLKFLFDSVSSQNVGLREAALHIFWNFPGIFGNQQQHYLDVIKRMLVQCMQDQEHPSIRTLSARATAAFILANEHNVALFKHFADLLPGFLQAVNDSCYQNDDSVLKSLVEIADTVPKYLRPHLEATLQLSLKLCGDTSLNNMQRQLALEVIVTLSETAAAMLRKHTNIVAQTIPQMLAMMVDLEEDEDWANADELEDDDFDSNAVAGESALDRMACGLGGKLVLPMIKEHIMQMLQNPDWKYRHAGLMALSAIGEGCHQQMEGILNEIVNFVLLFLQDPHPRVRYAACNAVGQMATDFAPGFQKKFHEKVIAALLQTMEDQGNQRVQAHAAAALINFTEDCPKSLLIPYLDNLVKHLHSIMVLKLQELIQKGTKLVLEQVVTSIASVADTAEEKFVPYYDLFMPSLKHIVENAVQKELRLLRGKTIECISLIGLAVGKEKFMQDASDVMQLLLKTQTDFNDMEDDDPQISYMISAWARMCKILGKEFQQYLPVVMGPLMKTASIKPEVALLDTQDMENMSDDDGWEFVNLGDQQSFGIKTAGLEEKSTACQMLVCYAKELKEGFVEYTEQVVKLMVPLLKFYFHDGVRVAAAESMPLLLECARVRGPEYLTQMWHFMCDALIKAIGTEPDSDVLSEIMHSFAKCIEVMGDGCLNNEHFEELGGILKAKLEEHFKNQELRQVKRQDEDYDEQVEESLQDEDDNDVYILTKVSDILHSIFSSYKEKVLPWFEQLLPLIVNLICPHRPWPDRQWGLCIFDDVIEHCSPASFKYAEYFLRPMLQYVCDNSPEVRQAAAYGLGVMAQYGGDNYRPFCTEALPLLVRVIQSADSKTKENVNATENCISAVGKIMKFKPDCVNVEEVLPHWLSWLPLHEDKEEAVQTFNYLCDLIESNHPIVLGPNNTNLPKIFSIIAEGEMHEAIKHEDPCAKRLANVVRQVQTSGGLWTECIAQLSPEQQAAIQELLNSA
UniProt Q9NZI8, whole entry, looked up: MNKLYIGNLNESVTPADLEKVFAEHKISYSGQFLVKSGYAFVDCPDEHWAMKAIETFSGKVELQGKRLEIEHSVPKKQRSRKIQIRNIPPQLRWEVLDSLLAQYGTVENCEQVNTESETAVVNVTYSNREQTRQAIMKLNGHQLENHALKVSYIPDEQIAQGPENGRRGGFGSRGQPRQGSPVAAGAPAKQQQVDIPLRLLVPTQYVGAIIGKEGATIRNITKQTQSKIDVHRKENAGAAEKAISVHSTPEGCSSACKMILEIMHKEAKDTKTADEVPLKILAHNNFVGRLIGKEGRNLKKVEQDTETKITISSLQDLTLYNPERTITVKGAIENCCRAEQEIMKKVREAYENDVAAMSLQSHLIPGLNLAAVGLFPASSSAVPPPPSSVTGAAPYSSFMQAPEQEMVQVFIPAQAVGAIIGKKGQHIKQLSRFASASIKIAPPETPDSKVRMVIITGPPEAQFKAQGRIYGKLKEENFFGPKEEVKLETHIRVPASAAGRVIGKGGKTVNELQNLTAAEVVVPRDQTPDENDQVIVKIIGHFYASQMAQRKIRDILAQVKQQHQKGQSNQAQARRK
UniProt P29218: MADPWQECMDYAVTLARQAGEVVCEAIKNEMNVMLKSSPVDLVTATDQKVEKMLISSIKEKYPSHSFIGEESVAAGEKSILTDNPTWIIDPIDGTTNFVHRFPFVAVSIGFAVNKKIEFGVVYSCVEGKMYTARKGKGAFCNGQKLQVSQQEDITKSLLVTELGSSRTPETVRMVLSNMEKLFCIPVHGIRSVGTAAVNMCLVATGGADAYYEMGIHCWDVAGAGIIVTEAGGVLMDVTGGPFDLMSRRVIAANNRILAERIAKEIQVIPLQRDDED
UniProt P80217: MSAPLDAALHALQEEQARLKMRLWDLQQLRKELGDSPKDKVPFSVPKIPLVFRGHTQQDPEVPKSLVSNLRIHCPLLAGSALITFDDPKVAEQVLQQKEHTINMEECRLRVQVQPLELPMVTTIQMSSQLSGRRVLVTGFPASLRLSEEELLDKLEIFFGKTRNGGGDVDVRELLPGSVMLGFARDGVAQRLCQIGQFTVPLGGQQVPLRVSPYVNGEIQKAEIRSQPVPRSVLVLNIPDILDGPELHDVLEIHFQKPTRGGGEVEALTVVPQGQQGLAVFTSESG
UniProt O75874, whole entry, looked up: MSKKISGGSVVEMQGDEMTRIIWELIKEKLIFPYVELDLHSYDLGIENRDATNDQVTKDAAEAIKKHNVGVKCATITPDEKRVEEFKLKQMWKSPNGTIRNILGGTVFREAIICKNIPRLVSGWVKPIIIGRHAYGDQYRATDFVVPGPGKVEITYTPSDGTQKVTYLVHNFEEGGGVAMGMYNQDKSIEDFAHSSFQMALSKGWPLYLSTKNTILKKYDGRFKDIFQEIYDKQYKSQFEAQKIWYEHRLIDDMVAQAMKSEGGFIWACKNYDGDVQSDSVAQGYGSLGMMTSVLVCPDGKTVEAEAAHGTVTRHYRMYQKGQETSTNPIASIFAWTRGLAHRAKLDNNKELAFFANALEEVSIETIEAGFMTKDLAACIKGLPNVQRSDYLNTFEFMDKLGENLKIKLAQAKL
UniProt O43736: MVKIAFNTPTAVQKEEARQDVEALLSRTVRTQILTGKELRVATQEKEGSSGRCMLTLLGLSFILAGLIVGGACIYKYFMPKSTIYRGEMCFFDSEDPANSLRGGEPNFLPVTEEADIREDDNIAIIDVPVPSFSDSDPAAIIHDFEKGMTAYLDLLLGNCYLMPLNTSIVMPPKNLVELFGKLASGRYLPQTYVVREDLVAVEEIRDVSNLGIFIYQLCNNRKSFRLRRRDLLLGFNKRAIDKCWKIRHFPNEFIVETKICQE

Tests used:
Experiment in all cases: log2 fold change, soluble protein after heating vs DMSO (PISA); higher = thermal stabilisation; K562 cells, 10 uM, 30 min; active = over 0.2 and 3.5 SD of the protein, either way, in both replicates (recomputed)
[1] = compound: CC1=C(C=C(C=C1)NC(=O)C2=CC(=CC=C2)C(C)(C)C#N)NC3=CC4=C(C=C3)N=CN(C4=O)C
Method in brief: (§1)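 Soluble protein was defined as the supernatant after 21,000xg for 90 min. It came from K562 cells at 2×10^6 cells/mL given 10 μM compound for 30 min, heated in aliquots for 3 min across 48°C-58°C, pooled, and extracted in PBS with 0.5% NP-40 at 4°C, and was quantified by TMTpro 16plex LC-MS/MS with equalised channel sums. Thermal stability against control samples, from duplicates, is reported as log2 fold change.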

[2] = compound: CC1=C(C=C(C=C1)NC(=O)C2=CC(=CC=C2)N(C)C)NC(=O)C3=CC=C(C=C3)O
Method in brief: as §1

[3] = compound: CC1=CC=C(C=C1)SC2=C3C=C(SC3=CN=C2)C(=O)N
Method in brief: as §1

[4] = compound: CC1=NC(=CC=C1)C2=C(N=C(N2)C(C)(C)C)C3=CC4=NC=CN=C4C=C3
Method in brief: as §1

[5] = compound: CCCCN(Cc1ccc(C(=O)NO)cc1)C(=O)Nc1ccccc1 [Nexturastat A]
Method in brief: as §1

[6] = compound: CCCS(=O)(=O)Nc1ccc(F)c(C(=O)c2c[nH]c3ncc(-c4ccc(Cl)cc4)cc23)c1F [vemurafenib]
Method in brief: as §1

[7] = compound: CCCS(=O)(=O)Nc1ccc(F)c(C(=O)c2c[nH]c3ncc(Cl)cc23)c1F
Method in brief: as §1

[8] = compound: CCCc1cc(C)[nH]c(=O)c1CNC(=O)c1cc(-c2ccnc(N3CCN(C)CC3)c2)cc2c1cnn2C(C)C
Method in brief: as §1

[9] = compound: CCN(CC)Cc1ccc2cc(COC(=O)Nc3ccc(C(=O)NO)cc3)ccc2c1 [givinostat]
Method in brief: as §1

[10] = compound: CCN(CCCOc1ccc2c(Nc3cc(CC(=O)Nc4cccc(F)c4)[nH]n3)ncnc2c1)CCOP(=O)(O)O [barasertib]
Method in brief: as §1

[11] = compound: CC[C@@H]1C(=O)N(C)c2cnc(Nc3ccc(C(=O)NC4CCN(C)CC4)cc3OC)nc2N1C1CCCC1
Method in brief: as §1

[12] = compound: CC[C@@H]1C(=O)N(C)c2cnc(Nc3ccc(C(=O)N[C@H]4CC[C@H](N5CCN(CC6CC6)CC5)CC4)cc3OC)nc2N1C(C)C [volasertib]
Method in brief: as §1

[13] = compound: CC[C@H](C)N1C=C(C2=C(C=C(C=C21)C3=CN=C(C=C3)N4CCNCC4)C(=O)NCC5=C(C=C(NC5=O)C)C)C
Method in brief: as §1

[14] = compound: CC[C@H](C)[C@@H](C(=O)N[C@@H]([C@@H](C)O)C(=O)N[C@@H](CC(C)C)C(=O)[C@]1(CO1)C)NC(=O)[C@H]([C@@H](C)CC)N(C)C(=O)C [epoxomicin]
Method in brief: as §1

[15] = compound: CCn1c(C(=O)N(C2CC2)C2CC2)cc2c3c(ncn3C)c(Nc3cc(C)n(C)n3)nc21
Method in brief: as §1

[16] = compound: CCn1cc(-c2ccnc3[nH]c(-c4cccc(CN(C)C)c4)cc23)c(-c2ccc(NC(=O)N(C)C)cc2)n1
Method in brief: as §1

[17] = compound: CN(C)CC(=O)Nc1ccc2[nH]c(=O)c3ccccc3c2c1
Method in brief: as §1

[18] = compound: CN(CCOC1=CC=C(C=C1)C[C@H]2C(=O)NC(=O)S2)C3=CC=CC=N3 (racemic) [rosiglitazone]
Method in brief: as §1

[19] = compound: CN1C2=C(C3=C1C(=O)N(N=C3)CC4=CC(=CC=C4)N)SC(=C2)S(=O)C
Method in brief: as §1

[20] = compound: CN1CCC(CNc2ccc3ncc(-c4cccc(OC(F)(F)F)c4)n3n2)CC1
Method in brief: as §1

Measured: log2 fold change

IGSF3 (UniProt O75054)
inactive: [1] -0.004 | [2] 0.035 | [3] -0.004 | [4] -0.022 | [5] -0.024 | [6] 0.029 | [7] 0 | [8] -0.016 | [9] 0.017 | [10] 0.028 | [11] 0.034 | [12] -0.021 | [13] -0.027 | [14] -0.009 | [15] -0.004 | [16] 0.003 | [17] 0.101 | [18] 0.03 | [19] -0.092 | [20] 0.141

IGBP1 (UniProt P78318)
inactive: [1] 0.011 | [2] -0.05 | [3] 0.034 | [4] 0.039 | [5] -0.034 | [6] 0.009 | [7] 0.092 | [8] -0.35 | [9] 0.053 | [10] 0.016 | [11] -0.044 | [12] -0.123 | [13] 0.025 | [14] 0.031 | [15] 0.027 | [16] -0.034 | [17] -0.017 | [18] 0.09 | [19] -0.027 | [20] -0.118

IST1 isoform 5 (UniProt P53990)
inactive: [1] 0.023 | [2] -0.012 | [3] 0.02 | [4] 0.022 | [5] -0.021 | [6] 0.017 | [7] 0.038 | [8] -0.034 | [9] 0.021 | [10] 0.021 | [11] 0.06 | [12] -0.003 | [13] 0.007 | [14] 0.055 | [15] -0.007 | [16] -0.013 | [17] 0.045 | [18] 0.068 | [19] 0.013 | [20] 0.029

IQGAP1 (UniProt P46940)
inactive: [1] -0.003 | [2] -0.027 | [3] 0.006 | [4] 0.052 | [5] -0.004 | [6] 0.045 | [7] 0.033 | [8] 0.032 | [9] 0.021 | [10] 0.047 | [11] -0.05 | [12] -0.154 | [13] 0.08 | [14] 0.041 | [15] -0.049 | [16] -0.092 | [17] 0.029 | [18] 0.065 | [19] -0.043 | [20] -0.136

ITPK1 (UniProt Q13572)
inactive: [1] -0.045 | [2] -0.081 | [3] 0.04 | [4] 0.06 | [5] 0.005 | [6] 0.025 | [7] -0.019 | [8] -0.032 | [9] -0.018 | [10] 0.049 | [11] 0.031 | [12] 0.053 | [13] 0.012 | [14] 0.011 | [15] -0.043 | [16] -0.158 | [17] 0.039 | [18] 0.067 | [19] -0.114 | [20] 0.029

ISCU (UniProt Q9H1K1)
inactive: [1] -0.022 | [2] 0.011 | [3] -0.002 | [4] 0.003 | [5] -0.049 | [6] -0.039 | [7] -0.066 | [8] -0.069 | [9] -0.097 | [10] 0.016 | [11] 0.038 | [12] 0.121 | [13] 0 | [14] -0.053 | [15] 0.011 | [16] 0 | [17] -0.042 | [18] 0.292 | [19] -0.066 | [20] 0.052

INPP4A (UniProt Q96PE3)
inactive: [1] -0.02 | [2] -0.103 | [3] -0.027 | [4] -0.023 | [5] -0.022 | [6] -0.013 | [7] -0.026 | [8] -0.127 | [9] 0.009 | [10] 0.032 | [11] 0.012 | [12] -0.033 | [13] 0.032 | [14] 0.011 | [15] -0.011 | [16] 0.12 | [17] 0.056 | [18] 0.035 | [19] 0.015 | [20] -0.209

IL18 (UniProt Q14116)
inactive: [1] -0.047 | [2] -0.041 | [3] 0.042 | [4] -0.034 | [5] -0.058 | [6] -0.037 | [7] -0.004 | [8] -0.068 | [9] 0.004 | [10] 0.045 | [11] 0.071 | [12] 0.059 | [13] -0.004 | [14] -0.007 | [15] -0.006 | [16] -0.11 | [17] -0.013 | [18] -0.037 | [19] -0.089 | [20] 0.011

IMPDH1 isoform 6 (UniProt P20839)
inactive: [1] -0.023 | [2] 0.008 | [3] -0.044 | [4] -0.044 | [5] 0.061 | [6] -0.047 | [7] -0.065 | [8] 0.032 | [9] 0.02 | [10] -0.059 | [11] 0.021 | [12] 0.185 | [13] -0.025 | [14] -0.031 | [15] -0.023 | [16] 0.092 | [17] -0.028 | [18] -0.054 | [19] 0.057 | [20] 0.022

IPO5 isoform 3 (UniProt O00410)
inactive: [1] 0.026 | [2] 0.019 | [3] 0.06 | [4] 0.029 | [5] -0.122 | [6] 0.059 | [7] 0.092 | [8] -0.029 | [9] -0.08 | [10] -0.009 | [11] -0.117 | [12] -0.168 | [13] 0.035 | [14] 0.028 | [15] 0.033 | [16] -0.09 | [17] 0.043 | [18] 0.047 | [19] -0.077 | [20] -0.169

Fetched one by one from above (2):
IL18 (UniProt Q14116)
inactive: [1] -0.047 | [2] -0.041 | [3] 0.042 | [4] -0.034 | [5] -0.058 | [6] -0.037 | [7] -0.004 | [8] -0.068 | [9] 0.004 | [10] 0.045 | [11] 0.071 | [12] 0.059 | [13] -0.004 | [14] -0.007 | [15] -0.006 | [16] -0.11 | [17] -0.013 | [18] -0.037 | [19] -0.089 | [20] 0.011

ISCU (UniProt Q9H1K1)
inactive: [1] -0.022 | [2] 0.011 | [3] -0.002 | [4] 0.003 | [5] -0.049 | [6] -0.039 | [7] -0.066 | [8] -0.069 | [9] -0.097 | [10] 0.016 | [11] 0.038 | [12] 0.121 | [13] 0 | [14] -0.053 | [15] 0.011 | [16] 0 | [17] -0.042 | [18] 0.292 | [19] -0.066 | [20] 0.052

Next part:

ITGAV (UniProt P06756)
inactive: [1] -0.046 | [2] -0.018 | [3] -0.027 | [4] 0.01 | [5] -0.002 | [6] -0.036 | [7] -0.009 | [8] 0 | [9] -0.009 | [10] -0.005 | [11] -0.077 | [12] -0.107 | [13] -0.033 | [14] 0.01 | [15] -0.013 | [16] -0.004 | [17] -0.019 | [18] 0.015 | [19] -0.006 | [20] -0.068

IGF2BP1 (UniProt Q9NZI8)
inactive: [1] 0.093 | [2] 0.031 | [3] -0.052 | [4] -0.107 | [5] 0.385 | [6] -0.017 | [7] 0.082 | [8] 0.167 | [9] 0.168 | [10] -0.04 | [11] 0.078 | [12] -0.515 | [13] 0.044 | [14] -0.345 | [15] 0.057 | [16] 0.193 | [17] -0.046 | [18] -0.1 | [19] 0.381 | [20] -0.107

IMPA1 isoform 3 (UniProt P29218)
inactive: [1] -0.029 | [2] 0.011 | [3] 0.009 | [4] -0.002 | [5] -0.054 | [6] -0.01 | [7] 0.006 | [8] -0.034 | [9] -0.029 | [10] -0.006 | [11] 0.051 | [12] 0.064 | [13] -0.027 | [14] -0.009 | [15] 0.024 | [16] -0.02 | [17] -0.043 | [18] 0.004 | [19] -0.003 | [20] -0.026

IFI35 isoform 2 (UniProt P80217)
inactive: [1] 0.001 | [2] -0.022 | [3] 0 | [4] 0.029 | [5] -0.041 | [6] -0.017 | [7] 0.008 | [8] -0.046 | [9] -0.022 | [10] 0.011 | [11] 0 | [12] 0.044 | [13] -0.014 | [14] 0.048 | [15] 0.002 | [16] -0.017 | [17] 0.025 | [18] 0.027 | [19] -0.057 | [20] 0.049

IDH1 (UniProt O75874)
inactive: [1] 0 | [2] 0.004 | [3] -0.014 | [4] 0.018 | [5] -0.06 | [6] -0.012 | [7] -0.033 | [8] -0.049 | [9] -0.012 | [10] -0.003 | [11] 0.013 | [12] 0.072 | [13] -0.037 | [14] 0.037 | [15] 0.012 | [16] -0.03 | [17] -0.015 | [18] -0.002 | [19] -0.037 | [20] -0.045

ITM2A (UniProt O43736)
inactive: [1] -0.033 | [2] -0.073 | [3] -0.026 | [4] -0.03 | [5] 0.002 | [6] -0.004 | [7] -0.103 | [8] 0.026 | [9] -0.046 | [10] -0.015 | [11] -0.028 | [12] -0.081 | [13] -0.019 | [14] -0.045 | [15] -0.021 | [16] -0.01 | [17] -0.055 | [18] -0.015 | [19] -0.024 | [20] 0.02
